{"source": "the supplement of paper PMC3334620", "note": "In all, about 33,000 sequences were measured (“E-score (-0.5 to 0.5)”: median about -0.016, highest 2% from about 0.3 on). The list shows a part of the results.", "data": [{"molecular_target": "T1, Yer184c (UniProt P39961)", "T1 sequence": "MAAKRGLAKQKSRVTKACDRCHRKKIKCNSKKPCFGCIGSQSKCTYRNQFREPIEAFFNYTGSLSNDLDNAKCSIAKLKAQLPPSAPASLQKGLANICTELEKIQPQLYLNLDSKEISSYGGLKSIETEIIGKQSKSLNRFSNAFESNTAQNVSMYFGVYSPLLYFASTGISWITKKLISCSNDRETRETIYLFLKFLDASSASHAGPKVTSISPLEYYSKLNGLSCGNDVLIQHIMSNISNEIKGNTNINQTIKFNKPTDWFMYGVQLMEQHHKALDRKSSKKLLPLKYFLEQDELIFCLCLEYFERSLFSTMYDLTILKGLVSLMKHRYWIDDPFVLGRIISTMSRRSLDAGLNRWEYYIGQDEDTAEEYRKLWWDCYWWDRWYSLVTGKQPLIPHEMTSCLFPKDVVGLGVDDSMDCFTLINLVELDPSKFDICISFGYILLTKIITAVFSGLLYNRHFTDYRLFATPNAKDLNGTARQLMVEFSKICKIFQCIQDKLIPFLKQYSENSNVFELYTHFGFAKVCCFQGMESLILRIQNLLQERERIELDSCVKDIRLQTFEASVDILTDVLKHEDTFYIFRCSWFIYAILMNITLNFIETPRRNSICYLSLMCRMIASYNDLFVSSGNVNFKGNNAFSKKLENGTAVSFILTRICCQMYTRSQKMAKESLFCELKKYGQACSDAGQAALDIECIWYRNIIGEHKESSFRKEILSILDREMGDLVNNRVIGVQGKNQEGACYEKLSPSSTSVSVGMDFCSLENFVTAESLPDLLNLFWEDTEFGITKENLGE", "test": "PBM E-score (8-mer binding enrichment) (E-score (-0.5 to 0.5)); higher = stronger / more preferred TF binding", "conditions": "protein concentration: 100 nM; construct: GST-full length", "outline": "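PURExpress in vitro transcription/translation supplied GST-tagged yeast transcription factors, either full-length or DNA-binding domain. Applied at about 100-200 nM to universal all-10-mer Agilent arrays double-stranded by primer extension, the bound protein was detected with fluorescent anti-GST. E-scores, modified Wilcoxon-Mann-Whitney statistics, were given by the Universal PBM Analysis Suite to ungapped eight-base words pooled with their reverse complements after masliner normalisation.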", "values": [{"sequence": "GTCCCGGA", "PBM E-score": 0.318}, {"sequence": "CAGATGGG", "PBM E-score": -0.0954}, {"sequence": "ACCATCGT", "PBM E-score": -0.108}, {"sequence": "CACCATGC", "PBM E-score": -0.226}, {"sequence": "GAGTTTTA", "PBM E-score": 0.159}, {"sequence": "AGCACAAA", "PBM E-score": 0.194}, {"sequence": "GCGGAATA", "PBM E-score": 0.205}, {"sequence": "GCATGAAC", "PBM E-score": 0.037}, {"sequence": "CGGCGTTC", "PBM E-score": 0.208}, {"sequence": "CTTCCAAC", "PBM E-score": 0.0172}, {"sequence": "CGCAGTCC", "PBM E-score": -0.124}, {"sequence": "GAGGCTTA", "PBM E-score": -0.176}, {"sequence": "GTGGCTTA", "PBM E-score": -0.218}, {"sequence": "CGGTAGGC", "PBM E-score": -0.094}, {"sequence": "CGTAGCAA", "PBM E-score": -0.0635}, {"sequence": "AGGGGAGA", "PBM E-score": -0.224}, {"sequence": "AGTGTACA", "PBM E-score": -0.0626}, {"sequence": "TTTTAAAA", "PBM E-score": 0.247}, {"sequence": "ACACATAA", "PBM E-score": 0.188}, {"sequence": "TCTCGGCA", "PBM E-score": 0.35}, {"sequence": "CCCCTTAA", "PBM E-score": -0.227}, {"sequence": "AACGGGAG", "PBM E-score": 0.0873}, {"sequence": "TCACGCGA", "PBM E-score": 0.0977}, {"sequence": "GCACGCAC", "PBM E-score": -0.129}, {"sequence": "GAGCTTTA", "PBM E-score": -0.023}, {"sequence": "GCGGGACC", "PBM E-score": -0.0189}, {"sequence": "AAGCTGCT", "PBM E-score": -0.121}, {"sequence": "TAGACGGA", "PBM E-score": 0.176}, {"sequence": "ACACGTAG", "PBM E-score": -0.233}, {"sequence": "CCTCGAGA", "PBM E-score": -0.107}, {"sequence": "ACCTCACT", "PBM E-score": -0.0518}, {"sequence": "CGTGACGA", "PBM E-score": 0.0606}, {"sequence": "TCCCGCAA", "PBM E-score": 0.0329}, {"sequence": "ACACTACA", "PBM E-score": 0.206}, {"sequence": "GGAGTTGA", "PBM E-score": 0.0129}, {"sequence": "ACGGAGGC", "PBM E-score": -0.0351}, {"sequence": "GATCACGC", "PBM E-score": 0.124}, {"sequence": "TATTACCA", "PBM E-score": 0.139}, {"sequence": "ACGAATAG", "PBM E-score": -0.0621}, {"sequence": "CTCCTAGC", "PBM E-score": -0.186}, {"sequence": "CCAGTAGG", "PBM E-score": -0.188}, {"sequence": "ACTCTCCG", "PBM E-score": 0.154}, {"sequence": "CCCCCCTC", "PBM E-score": -0.412}, {"sequence": "TATAGTAA", "PBM E-score": 0.182}, {"sequence": "TAGTACGA", "PBM E-score": 0.0695}, {"sequence": "CGAGTCGC", "PBM E-score": -0.136}, {"sequence": "AAGCGCAT", "PBM E-score": -0.19}, {"sequence": "ACCAATTA", "PBM E-score": 0.131}, {"sequence": "GACAACAC", "PBM E-score": 0.16}, {"sequence": "GCGGTAGA", "PBM E-score": -0.141}, {"sequence": "TATACAGA", "PBM E-score": 0.204}, {"sequence": "CGCATACA", "PBM E-score": 0.0334}, {"sequence": "ACTCTTAT", "PBM E-score": 0.124}, {"sequence": "TCAGGACA", "PBM E-score": 0.157}, {"sequence": "CGCGTCTC", "PBM E-score": 0.0597}, {"sequence": "CATCGCAC", "PBM E-score": -0.0543}, {"sequence": "GACCGTTA", "PBM E-score": 0.0236}, {"sequence": "ACCCACTG", "PBM E-score": -0.131}, {"sequence": "CAGTACCC", "PBM E-score": -0.283}, {"sequence": "GGCGTTCA", "PBM E-score": 0.0444}, {"sequence": "ACCTAAAA", "PBM E-score": 0.0578}, {"sequence": "GTTTTTAA", "PBM E-score": 0.203}, {"sequence": "AACCCATA", "PBM E-score": 0.129}, {"sequence": "GCTCCACC", "PBM E-score": -0.044}, {"sequence": "ACCCCTCG", "PBM E-score": -0.223}, {"sequence": "AGTGACTG", "PBM E-score": -0.192}, {"sequence": "AGCTCAAC", "PBM E-score": -0.00098}, {"sequence": "ACCGTCGG", "PBM E-score": 0.0379}, {"sequence": "ATCGCCGG", "PBM E-score": 0.39}, {"sequence": "AATGAAAT", "PBM E-score": 0.253}, {"sequence": "AACTCGGT", "PBM E-score": 0.129}, {"sequence": "TCTCTGAA", "PBM E-score": -0.0476}, {"sequence": "AAAAAGAA", "PBM E-score": 0.165}, {"sequence": "GCTCTACC", "PBM E-score": -0.295}, {"sequence": "AACATTGT", "PBM E-score": 0.0456}, {"sequence": "AGTATCCC", "PBM E-score": -0.0953}, {"sequence": "ACATGATG", "PBM E-score": -0.179}, {"sequence": "ATAGAATC", "PBM E-score": 0.128}, {"sequence": "AATTACGG", "PBM E-score": 0.234}, {"sequence": "ACGAGAGA", "PBM E-score": 0.0456}, {"sequence": "ATGATGGC", "PBM E-score": -0.121}, {"sequence": "AGCTACAA", "PBM E-score": 0.0644}, {"sequence": "AGCGGCCA", "PBM E-score": -0.161}, {"sequence": "CGATCCCC", "PBM E-score": -0.121}, {"sequence": "ATTCAGTC", "PBM E-score": -0.0628}, {"sequence": "AAAATAGA", "PBM E-score": 0.265}, {"sequence": "AAATCACA", "PBM E-score": 0.0406}, {"sequence": "CCCGTGCC", "PBM E-score": -0.00029}, {"sequence": "GATGCTAC", "PBM E-score": -0.109}, {"sequence": "AGTGCTGC", "PBM E-score": -0.136}, {"sequence": "CAGTTATC", "PBM E-score": 0.0261}, {"sequence": "AAAATCTA", "PBM E-score": 0.203}, {"sequence": "CAGGTTAA", "PBM E-score": -0.146}, {"sequence": "AAACTCTA", "PBM E-score": -0.0413}, {"sequence": "CTATGAGA", "PBM E-score": -0.0159}, {"sequence": "AACCCAGG", "PBM E-score": -0.149}, {"sequence": "AGTCGGTA", "PBM E-score": 0.103}]}]}
